From the supplement of paper PMC10849652
The other results are listed elsewhere or left out.

Amino acid sequences for entries named in this document (tags omitted). A change or cut given only in a name is not applied to a line headed by its entry.
UniProt Q9Y597: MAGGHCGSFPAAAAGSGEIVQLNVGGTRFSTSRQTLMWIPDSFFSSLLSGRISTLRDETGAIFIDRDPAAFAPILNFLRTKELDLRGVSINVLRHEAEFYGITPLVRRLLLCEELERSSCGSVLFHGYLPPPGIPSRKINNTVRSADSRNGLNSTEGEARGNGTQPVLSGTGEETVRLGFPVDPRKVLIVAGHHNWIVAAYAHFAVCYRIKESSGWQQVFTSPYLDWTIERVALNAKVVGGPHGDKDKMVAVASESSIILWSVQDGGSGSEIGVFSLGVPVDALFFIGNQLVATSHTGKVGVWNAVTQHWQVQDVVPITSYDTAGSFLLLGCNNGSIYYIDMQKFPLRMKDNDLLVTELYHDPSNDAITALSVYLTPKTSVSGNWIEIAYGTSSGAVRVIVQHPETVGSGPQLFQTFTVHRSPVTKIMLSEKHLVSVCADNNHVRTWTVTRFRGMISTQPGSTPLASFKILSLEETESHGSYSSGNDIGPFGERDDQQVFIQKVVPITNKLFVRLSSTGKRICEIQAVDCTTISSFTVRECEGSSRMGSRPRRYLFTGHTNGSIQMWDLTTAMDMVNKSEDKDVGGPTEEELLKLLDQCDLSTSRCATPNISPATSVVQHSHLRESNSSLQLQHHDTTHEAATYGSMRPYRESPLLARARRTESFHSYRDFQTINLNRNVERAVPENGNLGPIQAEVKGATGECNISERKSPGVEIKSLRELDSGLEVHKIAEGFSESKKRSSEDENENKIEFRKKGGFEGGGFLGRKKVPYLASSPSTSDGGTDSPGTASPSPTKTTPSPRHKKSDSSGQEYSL
UniProt Q15652: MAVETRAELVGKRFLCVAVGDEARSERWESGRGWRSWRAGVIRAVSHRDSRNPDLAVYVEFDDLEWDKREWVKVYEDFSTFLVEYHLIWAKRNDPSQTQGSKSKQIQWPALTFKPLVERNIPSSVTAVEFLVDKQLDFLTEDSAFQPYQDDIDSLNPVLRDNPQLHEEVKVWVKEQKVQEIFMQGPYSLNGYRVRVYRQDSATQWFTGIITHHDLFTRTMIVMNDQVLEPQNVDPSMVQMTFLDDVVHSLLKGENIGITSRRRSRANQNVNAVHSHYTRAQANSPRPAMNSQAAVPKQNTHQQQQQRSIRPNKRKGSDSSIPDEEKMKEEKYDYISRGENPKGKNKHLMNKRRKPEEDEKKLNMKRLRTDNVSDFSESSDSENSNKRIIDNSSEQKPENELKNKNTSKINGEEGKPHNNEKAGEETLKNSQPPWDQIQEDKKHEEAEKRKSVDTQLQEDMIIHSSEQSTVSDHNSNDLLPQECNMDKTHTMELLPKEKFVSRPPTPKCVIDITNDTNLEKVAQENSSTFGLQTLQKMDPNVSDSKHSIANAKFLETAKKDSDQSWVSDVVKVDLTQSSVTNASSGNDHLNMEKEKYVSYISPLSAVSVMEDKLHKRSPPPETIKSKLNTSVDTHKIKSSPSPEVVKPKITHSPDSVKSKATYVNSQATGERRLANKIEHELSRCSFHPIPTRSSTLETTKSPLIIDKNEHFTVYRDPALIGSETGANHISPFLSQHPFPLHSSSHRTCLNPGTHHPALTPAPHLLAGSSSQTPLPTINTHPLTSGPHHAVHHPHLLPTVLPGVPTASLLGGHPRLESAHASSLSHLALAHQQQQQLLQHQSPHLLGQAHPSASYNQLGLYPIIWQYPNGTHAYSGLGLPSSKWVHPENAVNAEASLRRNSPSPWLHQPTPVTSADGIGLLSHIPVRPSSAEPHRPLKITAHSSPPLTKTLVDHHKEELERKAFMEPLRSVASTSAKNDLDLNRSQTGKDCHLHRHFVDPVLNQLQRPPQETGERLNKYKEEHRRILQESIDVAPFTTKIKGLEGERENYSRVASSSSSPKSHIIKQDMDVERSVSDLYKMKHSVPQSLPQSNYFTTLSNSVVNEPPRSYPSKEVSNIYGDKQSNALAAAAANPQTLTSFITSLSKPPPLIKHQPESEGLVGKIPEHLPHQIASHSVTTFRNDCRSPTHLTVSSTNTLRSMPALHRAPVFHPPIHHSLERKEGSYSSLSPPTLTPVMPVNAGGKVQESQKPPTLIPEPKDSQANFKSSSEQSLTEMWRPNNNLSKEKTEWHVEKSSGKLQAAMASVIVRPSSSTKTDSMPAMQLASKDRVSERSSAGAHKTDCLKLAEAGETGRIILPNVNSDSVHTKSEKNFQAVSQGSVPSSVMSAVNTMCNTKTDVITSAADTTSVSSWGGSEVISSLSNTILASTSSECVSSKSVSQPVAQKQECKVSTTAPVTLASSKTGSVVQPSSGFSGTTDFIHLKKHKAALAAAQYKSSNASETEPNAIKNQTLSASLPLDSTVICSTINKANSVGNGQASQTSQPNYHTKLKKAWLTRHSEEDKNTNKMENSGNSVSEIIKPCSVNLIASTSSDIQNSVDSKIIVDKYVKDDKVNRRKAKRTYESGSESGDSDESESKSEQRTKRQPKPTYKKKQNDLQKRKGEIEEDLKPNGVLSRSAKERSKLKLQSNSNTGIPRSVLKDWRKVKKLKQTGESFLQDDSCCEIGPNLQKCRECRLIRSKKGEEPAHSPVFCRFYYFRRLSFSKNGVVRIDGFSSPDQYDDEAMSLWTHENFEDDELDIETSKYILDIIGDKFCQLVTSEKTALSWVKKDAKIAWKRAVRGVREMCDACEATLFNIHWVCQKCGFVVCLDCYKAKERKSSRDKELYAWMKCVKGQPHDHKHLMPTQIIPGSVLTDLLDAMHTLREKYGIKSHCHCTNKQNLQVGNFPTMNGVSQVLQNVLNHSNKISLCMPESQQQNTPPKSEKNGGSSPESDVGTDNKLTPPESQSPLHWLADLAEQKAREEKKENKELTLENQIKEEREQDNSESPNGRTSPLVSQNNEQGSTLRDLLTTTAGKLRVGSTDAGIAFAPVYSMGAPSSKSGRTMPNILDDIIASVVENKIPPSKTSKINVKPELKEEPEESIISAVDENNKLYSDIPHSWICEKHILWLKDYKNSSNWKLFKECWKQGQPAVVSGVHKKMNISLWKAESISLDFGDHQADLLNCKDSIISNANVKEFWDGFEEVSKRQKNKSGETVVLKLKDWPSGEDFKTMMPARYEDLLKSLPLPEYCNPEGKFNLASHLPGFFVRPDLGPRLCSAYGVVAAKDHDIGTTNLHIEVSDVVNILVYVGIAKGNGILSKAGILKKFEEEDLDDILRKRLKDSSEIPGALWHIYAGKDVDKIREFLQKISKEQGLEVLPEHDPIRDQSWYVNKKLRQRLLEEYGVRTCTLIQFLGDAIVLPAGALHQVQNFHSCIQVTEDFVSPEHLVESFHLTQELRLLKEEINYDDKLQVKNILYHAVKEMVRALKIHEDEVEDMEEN
UniProt P17535: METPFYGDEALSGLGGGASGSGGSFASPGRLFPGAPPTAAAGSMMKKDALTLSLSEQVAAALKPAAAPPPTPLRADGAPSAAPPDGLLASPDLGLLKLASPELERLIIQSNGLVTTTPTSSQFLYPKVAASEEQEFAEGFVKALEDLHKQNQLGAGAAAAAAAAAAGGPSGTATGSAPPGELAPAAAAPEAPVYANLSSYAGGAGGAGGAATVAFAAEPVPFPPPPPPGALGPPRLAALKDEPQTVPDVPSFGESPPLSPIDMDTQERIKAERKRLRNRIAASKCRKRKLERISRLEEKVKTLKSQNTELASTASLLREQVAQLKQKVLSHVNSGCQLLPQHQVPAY
UniProt P33176: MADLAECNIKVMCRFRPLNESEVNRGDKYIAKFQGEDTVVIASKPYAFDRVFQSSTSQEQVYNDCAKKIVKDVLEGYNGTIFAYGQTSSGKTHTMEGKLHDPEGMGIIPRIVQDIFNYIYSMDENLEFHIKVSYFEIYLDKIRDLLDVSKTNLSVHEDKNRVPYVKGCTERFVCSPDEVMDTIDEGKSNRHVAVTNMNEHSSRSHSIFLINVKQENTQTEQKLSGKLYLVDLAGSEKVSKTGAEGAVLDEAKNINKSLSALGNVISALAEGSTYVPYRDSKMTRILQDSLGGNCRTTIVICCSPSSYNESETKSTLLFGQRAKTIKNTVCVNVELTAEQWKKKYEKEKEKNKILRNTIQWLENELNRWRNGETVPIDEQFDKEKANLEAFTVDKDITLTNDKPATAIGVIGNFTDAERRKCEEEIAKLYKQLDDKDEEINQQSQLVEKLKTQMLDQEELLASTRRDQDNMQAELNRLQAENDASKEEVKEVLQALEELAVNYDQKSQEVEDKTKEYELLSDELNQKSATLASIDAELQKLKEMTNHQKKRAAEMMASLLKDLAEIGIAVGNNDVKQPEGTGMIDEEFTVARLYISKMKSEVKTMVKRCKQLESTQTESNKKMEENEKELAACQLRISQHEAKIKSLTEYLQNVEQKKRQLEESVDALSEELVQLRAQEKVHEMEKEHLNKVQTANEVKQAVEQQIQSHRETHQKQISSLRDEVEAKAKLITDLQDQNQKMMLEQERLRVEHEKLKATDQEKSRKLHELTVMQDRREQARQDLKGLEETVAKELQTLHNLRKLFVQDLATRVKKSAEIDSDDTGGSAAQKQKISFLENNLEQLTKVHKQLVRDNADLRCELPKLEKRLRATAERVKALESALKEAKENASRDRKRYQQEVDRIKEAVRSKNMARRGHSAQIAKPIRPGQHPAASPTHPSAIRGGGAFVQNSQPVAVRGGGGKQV
UniProt Q9NXV2: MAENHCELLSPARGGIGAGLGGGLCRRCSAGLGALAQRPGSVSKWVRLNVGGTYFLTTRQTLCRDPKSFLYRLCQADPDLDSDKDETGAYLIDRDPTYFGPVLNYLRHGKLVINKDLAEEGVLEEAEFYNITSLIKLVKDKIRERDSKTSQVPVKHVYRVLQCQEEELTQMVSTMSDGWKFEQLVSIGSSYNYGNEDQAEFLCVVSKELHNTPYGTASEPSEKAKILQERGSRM
UniProt Q96A73: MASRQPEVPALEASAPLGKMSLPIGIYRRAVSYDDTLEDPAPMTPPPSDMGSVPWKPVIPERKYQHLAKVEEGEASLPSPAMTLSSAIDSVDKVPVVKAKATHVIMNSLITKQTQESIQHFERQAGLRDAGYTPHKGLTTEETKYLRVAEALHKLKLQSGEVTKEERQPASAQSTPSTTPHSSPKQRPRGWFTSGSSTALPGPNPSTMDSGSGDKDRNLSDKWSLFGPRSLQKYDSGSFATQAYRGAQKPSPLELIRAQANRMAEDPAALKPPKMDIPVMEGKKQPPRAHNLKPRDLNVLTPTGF
UniProt O00139: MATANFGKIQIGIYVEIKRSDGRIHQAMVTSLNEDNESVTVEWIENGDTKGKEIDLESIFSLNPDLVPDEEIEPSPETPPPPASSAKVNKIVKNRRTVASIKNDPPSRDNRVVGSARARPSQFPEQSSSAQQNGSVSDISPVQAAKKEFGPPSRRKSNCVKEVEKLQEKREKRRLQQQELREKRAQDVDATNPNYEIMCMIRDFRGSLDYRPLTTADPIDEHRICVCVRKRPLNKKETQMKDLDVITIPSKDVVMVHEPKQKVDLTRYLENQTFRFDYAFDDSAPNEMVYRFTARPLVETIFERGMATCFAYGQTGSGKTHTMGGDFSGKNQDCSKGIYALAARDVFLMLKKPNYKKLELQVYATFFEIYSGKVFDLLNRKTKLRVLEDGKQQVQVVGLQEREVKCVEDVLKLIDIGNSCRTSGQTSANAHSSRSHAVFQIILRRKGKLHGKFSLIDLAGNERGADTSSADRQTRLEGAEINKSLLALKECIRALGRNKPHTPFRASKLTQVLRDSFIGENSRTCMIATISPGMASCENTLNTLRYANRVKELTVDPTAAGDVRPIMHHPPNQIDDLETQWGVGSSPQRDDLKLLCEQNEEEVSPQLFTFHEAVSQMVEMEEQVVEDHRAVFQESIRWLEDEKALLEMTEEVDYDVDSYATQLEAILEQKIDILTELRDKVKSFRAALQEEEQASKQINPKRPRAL
UniProt Q15046, whole entry, looked up: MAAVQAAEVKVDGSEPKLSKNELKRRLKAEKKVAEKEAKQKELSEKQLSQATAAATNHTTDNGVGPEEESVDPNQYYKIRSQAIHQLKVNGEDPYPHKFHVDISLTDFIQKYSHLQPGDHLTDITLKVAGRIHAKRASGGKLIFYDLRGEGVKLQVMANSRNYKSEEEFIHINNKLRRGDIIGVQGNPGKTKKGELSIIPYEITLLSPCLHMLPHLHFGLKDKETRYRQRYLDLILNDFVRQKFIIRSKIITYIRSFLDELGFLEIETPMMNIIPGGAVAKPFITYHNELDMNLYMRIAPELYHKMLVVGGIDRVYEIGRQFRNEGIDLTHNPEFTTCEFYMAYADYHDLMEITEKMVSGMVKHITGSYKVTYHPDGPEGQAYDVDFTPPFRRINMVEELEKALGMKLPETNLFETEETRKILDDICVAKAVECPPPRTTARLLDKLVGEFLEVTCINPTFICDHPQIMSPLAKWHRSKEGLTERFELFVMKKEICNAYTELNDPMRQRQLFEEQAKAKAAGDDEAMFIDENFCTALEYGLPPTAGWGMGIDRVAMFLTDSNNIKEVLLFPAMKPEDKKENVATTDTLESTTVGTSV

Key:
Assay in all cases: log2 fold change, soluble protein after heating vs DMSO (PISA); higher = thermal stabilisation; K562 cells, 10 uM, 30 min; active = over 0.2 and 3.5 SD of the protein, either way, in both replicates (recomputed)
[1] = compound: CC1=C(C=C(C=C1)NC(=O)C2=CC(=CC=C2)C(C)(C)C#N)NC3=CC4=C(C=C3)N=CN(C4=O)C
Method in brief: (§1)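 Soluble protein was defined as the supernatant after 21,000xg for 90 min. It came from K562 cells at 2×10^6 cells/mL given 10 μM compound for 30 min, heated in aliquots for 3 min across 48°C-58°C, pooled, and extracted in PBS with 0.5% NP-40 at 4°C, and was quantified by TMTpro 16plex LC-MS/MS with equalised channel sums. Thermal stability against control samples, from duplicates, is reported as log2 fold change.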

[2] = compound: CC1=C(C=C(C=C1)NC(=O)C2=CC(=CC=C2)N(C)C)NC(=O)C3=CC=C(C=C3)O
Method in brief: as §1

[3] = compound: CC1=CC=C(C=C1)SC2=C3C=C(SC3=CN=C2)C(=O)N
Method in brief: as §1

[4] = compound: CC1=NC(=CC=C1)C2=C(N=C(N2)C(C)(C)C)C3=CC4=NC=CN=C4C=C3
Method in brief: as §1

[5] = compound: CCCCN(Cc1ccc(C(=O)NO)cc1)C(=O)Nc1ccccc1 [Nexturastat A]
Method in brief: as §1

[6] = compound: CCCS(=O)(=O)Nc1ccc(F)c(C(=O)c2c[nH]c3ncc(-c4ccc(Cl)cc4)cc23)c1F [vemurafenib]
Method in brief: as §1

[7] = compound: CCCS(=O)(=O)Nc1ccc(F)c(C(=O)c2c[nH]c3ncc(Cl)cc23)c1F
Method in brief: as §1

[8] = compound: CCCc1cc(C)[nH]c(=O)c1CNC(=O)c1cc(-c2ccnc(N3CCN(C)CC3)c2)cc2c1cnn2C(C)C
Method in brief: as §1

[9] = compound: CCN(CC)Cc1ccc2cc(COC(=O)Nc3ccc(C(=O)NO)cc3)ccc2c1 [givinostat]
Method in brief: as §1

[10] = compound: CCN(CCCOc1ccc2c(Nc3cc(CC(=O)Nc4cccc(F)c4)[nH]n3)ncnc2c1)CCOP(=O)(O)O [barasertib]
Method in brief: as §1

[11] = compound: CC[C@@H]1C(=O)N(C)c2cnc(Nc3ccc(C(=O)NC4CCN(C)CC4)cc3OC)nc2N1C1CCCC1
Method in brief: as §1

[12] = compound: CC[C@@H]1C(=O)N(C)c2cnc(Nc3ccc(C(=O)N[C@H]4CC[C@H](N5CCN(CC6CC6)CC5)CC4)cc3OC)nc2N1C(C)C [volasertib]
Method in brief: as §1

[13] = compound: CC[C@H](C)N1C=C(C2=C(C=C(C=C21)C3=CN=C(C=C3)N4CCNCC4)C(=O)NCC5=C(C=C(NC5=O)C)C)C
Method in brief: as §1

[14] = compound: CC[C@H](C)[C@@H](C(=O)N[C@@H]([C@@H](C)O)C(=O)N[C@@H](CC(C)C)C(=O)[C@]1(CO1)C)NC(=O)[C@H]([C@@H](C)CC)N(C)C(=O)C [epoxomicin]
Method in brief: as §1

[15] = compound: CCn1c(C(=O)N(C2CC2)C2CC2)cc2c3c(ncn3C)c(Nc3cc(C)n(C)n3)nc21
Method in brief: as §1

[16] = compound: CCn1cc(-c2ccnc3[nH]c(-c4cccc(CN(C)C)c4)cc23)c(-c2ccc(NC(=O)N(C)C)cc2)n1
Method in brief: as §1

[17] = compound: CN(C)CC(=O)Nc1ccc2[nH]c(=O)c3ccccc3c2c1
Method in brief: as §1

[18] = compound: CN(CCOC1=CC=C(C=C1)C[C@H]2C(=O)NC(=O)S2)C3=CC=CC=N3 (racemic) [rosiglitazone]
Method in brief: as §1

[19] = compound: CN1C2=C(C3=C1C(=O)N(N=C3)CC4=CC(=CC=C4)N)SC(=C2)S(=O)C
Method in brief: as §1

[20] = compound: CN1CCC(CNc2ccc3ncc(-c4cccc(OC(F)(F)F)c4)n3n2)CC1
Method in brief: as §1

Measured: log2 fold change

KCTD3 (UniProt Q9Y597)
inactive: [1] -0.144 | [2] 0.044 | [3] -0.016 | [4] 0.004 | [5] 0.08 | [6] -0.07 | [7] -0.031 | [8] -0.025 | [9] -0.033 | [10] -0.004 | [11] 0.05 | [12] 0.071 | [13] -0.018 | [14] 0.055 | [15] -0.028 | [16] 0.001 | [17] -0.074 | [18] -0.019 | [19] -0.023 | [20] -0.091

JMJD1C (UniProt Q15652)
inactive: [1] 0.022 | [2] 0.007 | [3] -0.036 | [4] 0.04 | [5] -0.007 | [6] -0.012 | [7] 0.013 | [8] -0.03 | [9] 0.082 | [10] 0.055 | [11] -0.125 | [12] -0.217 | [13] 0.003 | [14] 0.069 | [15] -0.074 | [16] -0.124 | [17] 0.065 | [18] 0.05 | [19] 0.009 | [20] -0.09

JUND (UniProt P17535)
inactive: [1] -0.004 | [2] 0.006 | [3] -0.066 | [4] -0.073 | [5] -0.04 | [6] 0.003 | [7] 0.019 | [8] -0.002 | [9] -0.053 | [10] -0.016 | [11] 0.129 | [12] 0.085 | [13] -0.071 | [14] -0.031 | [15] 0 | [16] 0.057 | [17] -0.089 | [18] 0.015 | [19] 0.035 | [20] 0.167

KIF23 (UniProt Q02241)
inactive: [1] -0.039 | [2] 0.004 | [3] -0.006 | [4] -0.171 | [5] 0.035 | [6] 0.128 | [7] -0.211 | [8] -0.072 | [9] 0.183 | [10] 0.082 | [11] -0.119 | [12] 0.003 | [13] 0.009 | [14] 0.051 | [15] -0.084 | [16] 0.053 | [17] -0.04 | [18] 0.091 | [19] 0.111 | [20] 0.064

KIF5B (UniProt P33176)
inactive: [1] 0.002 | [2] -0.006 | [3] -0.004 | [4] 0.042 | [5] -0.03 | [6] 0.037 | [7] 0.02 | [8] -0.001 | [9] -0.024 | [10] -0.012 | [11] -0.006 | [12] 0.033 | [13] 0.051 | [14] 0.051 | [15] -0.008 | [16] -0.052 | [17] 0.028 | [18] 0.017 | [19] -0.046 | [20] -0.011

KCTD5 (UniProt Q9NXV2)
inactive: [1] -0.022 | [2] -0.04 | [3] -0.041 | [4] 0.125 | [5] 0.068 | [6] -0.036 | [7] -0.012 | [8] -0.054 | [9] -0.037 | [10] 0.019 | [11] -0.089 | [12] -0.075 | [13] -0.086 | [14] 0.07 | [15] -0.001 | [16] -0.031 | [17] -0.007 | [18] -0.008 | [19] -0.057 | [20] -0.018

KHK isoform 2 (UniProt P50053)
inactive: [1] 0.007 | [2] 0.07 | [3] -0.021 | [4] -0.067 | [5] -0.04 | [6] -0.018 | [7] 0.041 | [8] -0.28 | [9] -0.013 | [10] 0.041 | [11] -0.026 | [12] 0.021 | [13] -0.027 | [14] 0.001 | [15] -0.028 | [16] -0.027 | [17] -0.055 | [18] -0.052 | [19] 0.002 | [20] -0.092

KHSRP (UniProt Q92945)
inactive: [1] -0.01 | [2] -0.001 | [3] -0.005 | [4] 0.035 | [5] -0.093 | [6] -0.015 | [7] -0.034 | [8] -0.029 | [9] -0.015 | [10] -0.009 | [11] -0.035 | [12] 0.084 | [13] -0.038 | [14] -0.034 | [15] 0.03 | [16] 0.038 | [17] -0.028 | [18] 0 | [19] -0.045 | [20] 0.02

KDSR (UniProt Q06136)
inactive: [1] 0.015 | [2] -0.002 | [3] -0.006 | [4] 0.054 | [5] -0.065 | [6] -0.008 | [7] 0.017 | [8] -0.025 | [9] 0.015 | [10] -0.031 | [11] 0.045 | [12] 0.055 | [13] -0.054 | [14] 0.041 | [15] 0.002 | [16] -0.008 | [17] -0.005 | [18] 0.016 | [19] -0.003 | [20] 0.127

KIAA2013 isoform 2 (UniProt Q8IYS2)
inactive: [1] -0.011 | [2] 0.028 | [3] -0.066 | [4] -0.002 | [5] -0.022 | [6] -0.019 | [7] -0.082 | [8] -0.033 | [9] -0.018 | [10] 0 | [11] 0.112 | [12] 0.013 | [13] -0.032 | [14] 0.044 | [15] 0.063 | [16] 0.07 | [17] 0.021 | [18] 0.002 | [19] -0.091 | [20] 0.069

KDM5C (UniProt P41229)
inactive: [1] 0.033 | [2] -0.116 | [3] 0.044 | [4] 0.063 | [5] -0.09 | [6] 0.06 | [7] 0.119 | [8] 0.07 | [9] 0.005 | [10] 0.024 | [11] -0.048 | [12] -0.332 | [13] 0.25 | [14] 0.075 | [15] 0 | [16] -0.041 | [17] 0.018 | [18] 0.005 | [19] -0.044 | [20] -0.197

KIAA1191 (UniProt Q96A73)
inactive: [1] -0.016 | [2] -0.037 | [3] 0.019 | [4] 0.001 | [5] 0 | [6] 0.005 | [7] -0.034 | [8] -0.03 | [9] 0.083 | [10] 0.059 | [11] -0.017 | [12] -0.075 | [13] -0.004 | [14] -0.067 | [15] -0.04 | [16] 0.03 | [17] -0.005 | [18] -0.006 | [19] -0.019 | [20] -0.039

KIF2A isoform 4 (UniProt O00139)
inactive: [1] -0.013 | [2] -0.046 | [3] -0.067 | [4] -0.012 | [5] 0.11 | [6] -0.067 | [7] 0.026 | [8] 0.094 | [9] 0.048 | [10] -0.021 | [11] 0.137 | [12] 0.008 | [13] 0.031 | [14] -0.104 | [15] -0.021 | [16] 0.043 | [17] -0.04 | [18] -0.007 | [19] 0.08 | [20] 0.007

2 consecutive entries already listed:
KIF23 (UniProt Q02241)
inactive: [1] -0.039 | [2] 0.004 | [3] -0.006 | [4] -0.171 | [5] 0.035 | [6] 0.128 | [7] -0.211 | [8] -0.072 | [9] 0.183 | [10] 0.082 | [11] -0.119 | [12] 0.003 | [13] 0.009 | [14] 0.051 | [15] -0.084 | [16] 0.053 | [17] -0.04 | [18] 0.091 | [19] 0.111 | [20] 0.064

KIF5B (UniProt P33176)
inactive: [1] 0.002 | [2] -0.006 | [3] -0.004 | [4] 0.042 | [5] -0.03 | [6] 0.037 | [7] 0.02 | [8] -0.001 | [9] -0.024 | [10] -0.012 | [11] -0.006 | [12] 0.033 | [13] 0.051 | [14] 0.051 | [15] -0.008 | [16] -0.052 | [17] 0.028 | [18] 0.017 | [19] -0.046 | [20] -0.011

The results go on:

KPNA3 (UniProt O00505)
inactive: [1] 0.089 | [2] 0.003 | [3] 0.014 | [4] 0.031 | [5] -0.097 | [6] 0.002 | [7] 0.039 | [8] -0.009 | [9] 0.032 | [10] -0.006 | [11] -0.097 | [12] -0.204 | [13] 0.048 | [14] 0.095 | [15] 0.035 | [16] -0.104 | [17] 0.134 | [18] 0.021 | [19] -0.246 | [20] -0.094

KARS1 (UniProt Q15046)
inactive: [1] -0.018 | [2] 0.011 | [3] -0.057 | [4] -0.092 | [5] 0.126 | [6] -0.044 | [7] -0.039 | [8] 0.062 | [9] -0.016 | [10] -0.096 | [11] 0.135 | [12] 0.137 | [13] -0.054 | [14] -0.204 | [15] 0.012 | [16] 0.107 | [17] -0.049 | [18] -0.09 | [19] 0.144 | [20] 0.33

KPNA2 (UniProt P52292)
inactive: [1] 0.017 | [2] 0.059 | [3] -0.032 | [4] -0.075 | [5] 0.345 | [6] 0.038 | [7] -0.02 | [8] 0.197 | [9] 0.159 | [10] 0.006 | [11] 0.133 | [12] -0.038 | [13] 0.067 | [14] -0.235 | [15] -0.041 | [16] -0.101 | [17] 0.005 | [18] -0.059 | [19] 0.351 | [20] 0.049
